Tested on: Arabidopsis thaliana
Conditions: seedlings in MS medium, Cd 0-50 μM

## [Cd] [Cd, cadmium]
  tipping point ploidy level T: 8C
